Laboratory results as given in publication PMC3320885 (PLoS ONE, 2012).

System: Src or Abl
Assay: Inhibitor fluorescence increase on binding to kinase
Parameters: species or system human
Details: excitation 350 nm, relative to free ligand

SMILES | increase in fluorescence intensity at 480 nm upon binding
COc1cc2c(Nc3cc(Cl)c(OC)c(Cl)c3)c(C#N)cnc2cc1OCCCN1CCN(C)CC1 [bosutinib isomer] | ~500 fold
COc1cc(Nc2c(C#N)cnc3cc(OCCCN4CCN(C)CC4)c(OC)cc23)c(Cl)cc1Cl [bosutinib] | ~10 fold
